Experimental data from publication PMC6113249.
Results are given in words; binding and its absence hold for the method and conditions named. Binding seen in cells or lysates may run through a third protein. Some binding calls cover weakened binding; strength is not graded here.

Amino acid sequences for entries named in this document (tags omitted). A change or cut given only in a name is not applied to a line headed by its entry. Chains listed by the source or under a name are the forms on record and can include a tag or linker.
UniProt P02340: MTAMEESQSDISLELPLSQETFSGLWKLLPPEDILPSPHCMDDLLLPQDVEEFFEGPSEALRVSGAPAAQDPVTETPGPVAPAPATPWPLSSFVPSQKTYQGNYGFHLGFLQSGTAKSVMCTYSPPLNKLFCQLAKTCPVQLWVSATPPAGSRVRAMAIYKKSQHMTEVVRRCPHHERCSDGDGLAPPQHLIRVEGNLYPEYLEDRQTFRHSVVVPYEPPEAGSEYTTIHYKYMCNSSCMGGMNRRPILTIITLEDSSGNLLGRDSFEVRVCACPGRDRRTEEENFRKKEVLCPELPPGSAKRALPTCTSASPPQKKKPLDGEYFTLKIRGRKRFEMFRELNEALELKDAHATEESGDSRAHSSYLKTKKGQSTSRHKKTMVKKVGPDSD
phospho-Creb1 (mouse (endogenous in primary osteoblastic cells)) (Q01147-1, form named): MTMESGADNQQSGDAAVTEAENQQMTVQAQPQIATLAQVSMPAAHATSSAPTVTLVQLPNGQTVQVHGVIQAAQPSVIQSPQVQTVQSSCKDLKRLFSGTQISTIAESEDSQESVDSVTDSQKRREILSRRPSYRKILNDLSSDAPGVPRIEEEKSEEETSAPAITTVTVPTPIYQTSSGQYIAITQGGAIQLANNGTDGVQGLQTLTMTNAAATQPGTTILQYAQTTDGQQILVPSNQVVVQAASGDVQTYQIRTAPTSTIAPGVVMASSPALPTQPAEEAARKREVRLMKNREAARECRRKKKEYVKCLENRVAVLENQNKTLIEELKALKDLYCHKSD
UniProt P45481: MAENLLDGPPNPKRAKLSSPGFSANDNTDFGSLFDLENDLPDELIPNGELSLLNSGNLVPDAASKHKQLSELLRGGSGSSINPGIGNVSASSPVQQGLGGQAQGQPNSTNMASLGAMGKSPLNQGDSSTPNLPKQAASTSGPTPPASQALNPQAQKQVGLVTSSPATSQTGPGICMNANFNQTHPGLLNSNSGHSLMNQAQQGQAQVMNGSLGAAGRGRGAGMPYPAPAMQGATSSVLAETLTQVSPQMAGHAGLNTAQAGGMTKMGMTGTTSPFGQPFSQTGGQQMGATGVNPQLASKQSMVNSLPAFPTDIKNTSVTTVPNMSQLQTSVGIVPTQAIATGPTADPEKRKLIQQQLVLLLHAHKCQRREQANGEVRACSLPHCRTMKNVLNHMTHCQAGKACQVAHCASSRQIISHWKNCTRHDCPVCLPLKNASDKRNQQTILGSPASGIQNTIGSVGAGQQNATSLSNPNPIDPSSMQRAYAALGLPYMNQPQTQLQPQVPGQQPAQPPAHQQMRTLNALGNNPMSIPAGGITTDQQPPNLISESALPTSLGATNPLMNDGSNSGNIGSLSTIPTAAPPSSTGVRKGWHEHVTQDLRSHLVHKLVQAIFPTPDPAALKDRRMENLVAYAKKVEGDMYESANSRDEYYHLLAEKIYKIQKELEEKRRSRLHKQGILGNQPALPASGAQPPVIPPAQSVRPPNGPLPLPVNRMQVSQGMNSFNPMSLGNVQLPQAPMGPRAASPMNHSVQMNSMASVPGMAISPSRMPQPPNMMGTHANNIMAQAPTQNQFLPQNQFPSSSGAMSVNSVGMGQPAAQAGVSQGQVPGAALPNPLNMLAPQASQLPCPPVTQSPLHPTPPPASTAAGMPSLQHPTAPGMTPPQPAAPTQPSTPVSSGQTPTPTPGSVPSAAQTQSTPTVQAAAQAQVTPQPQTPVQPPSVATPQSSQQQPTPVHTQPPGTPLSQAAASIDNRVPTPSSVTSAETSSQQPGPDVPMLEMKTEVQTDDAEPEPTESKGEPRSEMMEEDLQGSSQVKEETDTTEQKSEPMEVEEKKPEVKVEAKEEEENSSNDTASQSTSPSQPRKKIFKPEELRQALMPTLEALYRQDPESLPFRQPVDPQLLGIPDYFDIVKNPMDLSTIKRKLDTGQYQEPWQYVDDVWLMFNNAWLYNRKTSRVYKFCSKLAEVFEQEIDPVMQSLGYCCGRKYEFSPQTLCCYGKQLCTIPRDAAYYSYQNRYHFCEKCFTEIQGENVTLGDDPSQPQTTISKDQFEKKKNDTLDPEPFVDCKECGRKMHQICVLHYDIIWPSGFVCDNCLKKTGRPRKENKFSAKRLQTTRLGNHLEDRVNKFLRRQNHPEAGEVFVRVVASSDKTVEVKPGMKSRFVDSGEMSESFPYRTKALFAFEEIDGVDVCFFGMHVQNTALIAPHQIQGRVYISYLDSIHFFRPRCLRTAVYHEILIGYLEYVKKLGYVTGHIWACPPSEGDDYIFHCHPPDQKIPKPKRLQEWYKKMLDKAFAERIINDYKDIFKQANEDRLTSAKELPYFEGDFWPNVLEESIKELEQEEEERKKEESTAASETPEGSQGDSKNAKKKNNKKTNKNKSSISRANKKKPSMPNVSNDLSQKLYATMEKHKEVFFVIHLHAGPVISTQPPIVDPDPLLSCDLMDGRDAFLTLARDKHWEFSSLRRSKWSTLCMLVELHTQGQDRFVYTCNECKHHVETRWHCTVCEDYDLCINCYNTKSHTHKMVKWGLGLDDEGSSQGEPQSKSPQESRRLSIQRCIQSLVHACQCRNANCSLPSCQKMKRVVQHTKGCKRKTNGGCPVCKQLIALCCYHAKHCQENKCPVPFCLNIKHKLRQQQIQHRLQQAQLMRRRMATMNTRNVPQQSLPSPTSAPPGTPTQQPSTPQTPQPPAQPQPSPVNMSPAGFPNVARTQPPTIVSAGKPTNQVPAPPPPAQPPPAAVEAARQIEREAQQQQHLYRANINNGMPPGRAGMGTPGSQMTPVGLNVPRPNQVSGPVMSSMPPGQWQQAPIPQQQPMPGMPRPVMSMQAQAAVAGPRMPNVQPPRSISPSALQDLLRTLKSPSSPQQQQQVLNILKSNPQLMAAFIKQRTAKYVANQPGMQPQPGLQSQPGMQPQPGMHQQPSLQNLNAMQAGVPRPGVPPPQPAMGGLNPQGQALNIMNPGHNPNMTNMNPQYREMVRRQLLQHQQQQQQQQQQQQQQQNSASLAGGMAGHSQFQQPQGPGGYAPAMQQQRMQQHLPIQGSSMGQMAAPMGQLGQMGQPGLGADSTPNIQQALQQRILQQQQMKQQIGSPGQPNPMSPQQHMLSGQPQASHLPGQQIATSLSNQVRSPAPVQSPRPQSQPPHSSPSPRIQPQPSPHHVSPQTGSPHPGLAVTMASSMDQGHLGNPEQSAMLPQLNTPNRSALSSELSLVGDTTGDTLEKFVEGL

Tests used:
[1] = target: p53 (mouse (endogenous in primary osteoblastic cells)) (UniProt P02340); assay: co-IP; immunoprecipitation with p53 antibody (1C12) from lysates of isogenic p53 WT/WT and p53 KO/KO cells treated with DMSO, 10 uM Nutlin, 10 uM forskolin or forskolin + Nutlin; western blot
[2] = target: Creb1 (mouse (endogenous in primary osteoblastic cells)) (UniProt Q01147); assay: co-IP; immunoprecipitation with CREB1 antibody (ab31387) or phospho-CREB1 antibody (Cell Signaling 9198) from lysates of isogenic p53 WT/WT and p53 KO/KO primary osteoblastic cells; 1% NP-40 lysis buffer, low salt, high salt (500 mM NaCl) and LiCl washes; western blot
[3] = target: Cbp (mouse (endogenous in primary osteoblastic cells)) (UniProt P45481); assay: co-IP; immunoprecipitation with CBP antibody (C-1, sc-7300) from lysates of isogenic p53 WT/WT and p53 KO/KO primary osteoblastic cells; 1% NP-40 lysis buffer, low salt, high salt and LiCl washes; western blot
[4] = target: phospho-Creb1 (mouse (endogenous in primary osteoblastic cells)) (UniProt Q01147); assay: co-IP; immunoprecipitation with CREB1 antibody (ab31387) or phospho-CREB1 antibody (Cell Signaling 9198) from lysates of isogenic p53 WT/WT and p53 KO/KO primary osteoblastic cells; 1% NP-40 lysis buffer, low salt, high salt (500 mM NaCl) and LiCl washes; western blot

| binding [1] | binding [2] | binding [3] | binding [4] | Substance |
| --- | --- | --- | --- | --- |
| binds | binds |  |  | Cbp (from UniProt P45481 1-2441) |
| binds |  | binds |  | Creb1 (from UniProt Q01147-1 1-341) |
|  | binds | binds | binds | p53 (from UniProt P02340 1-390) |
